Experimental data as given in PubChem BioAssay AID504467 (National Center for Advancing Translational Sciences (NCATS), 2011).
About 7,700 (2.3%) of roughly 330,000 compounds were called active. This list was built around the results that the source calls inconclusive (neither active nor inactive); the mix of calls is not that of the screen. Calls follow the shape of the dose curve; as a rule, active = well fitted inhibition curve with a large enough effect; inconclusive = small, poorly fitted or top-dose-only effect, or effect the other way; inactive = flat fitted curve, though single readings scatter. A potency beside an inconclusive call is a rough fit, not a confirmed value.

test: qHTS screen for small molecules that inhibit ELG1-dependent DNA repair in human embryonic kidney (HEK293T) cells expressing luciferase-tagged ELG1; settings: HEK293T ELG1-luciferase reporter, luminescence, 16 h, DNA damage induced by 5-fluorouridine; activity change, negative = inhibition: at 46.1 µM (top of the series); also: nearly all actives have a fitted effect of over 55% in size
Outline: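 HEK293T cells expressing luciferase-tagged ELG1 (2,000/well) received 5-Fluorouridine plus compound or DMSO for 16 hr at 37 °C. Luciferase was read by ONE-Glo luminescence after 30 min at room temperature.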
% is scaled to controls: 0 for no effect and ±100 for the full control effect; potency is read from the fitted curve at half-maximal effect.

Structure (SMILES)	Potency	activity change, negative = inhibition
Cc1ccc2oc(Nc3nc(C)cc(C)n3)nc2c1	inconclusive: 13 µM [activator, partial curve]	–
Cc1cc(C(=O)CSc2nc3ccccc3[nH]2)c(C)n1CC1CCCO1 (stereo not drawn)	inconclusive: 0.517 µM [activator, full curve]	–
N/C(=N\OC(=O)c1ccc(Cl)c(Cl)c1)c1cccc(CSc2ccccn2)c1	inconclusive: 18.3 µM [activator, partial curve]	–
CCCn1c(N)c(NCCN2CCOCC2)c(=O)[nH]c1=O	–	inactive: 10.2%
CCNc1nc(ON=C(C)C)nc(N(C)C)n1	–	inactive: 2.5%
O=C(Nc1ccccc1)C1=C[C@@H](C2CCCCC2)C[C@@H](OCc2ccc(CO)cc2)O1	inconclusive: 23.1 µM [inhibitor, single point]	–
COc1ccc(Oc2nc(-c3cccnc3)nc3ccccc23)cc1	inconclusive: 29.1 µM [inhibitor, single point]	–
CC(=O)OCc1nc2sc3c(c2c(=O)[nH]1)CCCC3	inconclusive: 20.6 µM [activator, partial curve, poor fit]	–
O=C(COC(=O)c1cncc(Br)c1)Nc1ccc(N2CCCCC2)cc1	inconclusive: 10.3 µM [activator, partial curve, poor fit]	–
CCCOc1cccc(-c2nc3ccccc3c(=O)o2)c1	inconclusive: 23.1 µM [activator, partial curve]	–
O=C(NNc1cccc(Cl)c1)c1cccnc1Oc1ccccc1	inconclusive: 29.1 µM [inhibitor, partial curve, poor fit]	–
CCCOC(=O)c1ccc(NS(=O)(=O)c2cccs2)cc1	inconclusive: 16.4 µM [inhibitor, partial curve, poor fit]	–
CCOC(=O)C1=C(NC(=O)c2ccc(Br)o2)Nc2ccccc2N=C1	inconclusive: 18.4 µM [inhibitor, single point]	–
COc1ccc(NC(=O)C(C)N2C(=O)c3ccccc3S2(=O)=O)c(OC)c1 (stereo not drawn)	inconclusive: 6.51 µM [activator, partial curve, poor fit]	–
O=C(Oc1c(-c2ccccc2)c(=O)n2c3c(cccc13)CC2)c1ccc(F)cc1	inconclusive: 25.9 µM [activator, single point]	–
Cc1ccc(NC(=O)c2ccc(COc3ccc4c(c3)CCC4)cc2)c(C)c1	inconclusive: 29.1 µM [activator, single point]	–
COc1ccc(OC)c(S(=O)(=O)NCC(c2ccc(F)cc2)N2CCN(C)CC2)c1 (stereo not drawn)	inconclusive: 23.1 µM [activator, single point]	–
COc1cccc(-c2cc(C(F)(F)F)nc(-n3cc(Cl)cn3)n2)c1	inconclusive: 29.1 µM [inhibitor, single point]	–
CCCOc1ccc(C(=O)Nc2ccc3c(c2)OCCO3)cc1	inconclusive: 1.46 µM [activator, full curve]	–
COc1ccc2oc(C(=O)NCc3ccco3)c(C)c2c1	inconclusive: 20.6 µM [activator, single point]	–
O=C(NN=C1C2CC3CC(C2)CC1C3)c1ccncc1	–	inactive: 4.09%
COC(=O)c1cccc(C(=O)N2CCC(CO)(Cc3ccccc3Cl)CC2)c1	inconclusive: 20.6 µM [inhibitor, single point]	–
COC(=O)Nc1ccc(OCc2ccccc2)cc1	inconclusive: 8.2 µM [activator, partial curve]	–

Structure (SMILES)	Potency	activity change, negative = inhibition
Cc1cccc(NC(=S)NC2CC3CCCC(C2)N3Cc2cccs2)c1 (stereo not drawn)	–	inactive: -8.76%
Cc1ccc(/C=C2\SC(=S)N(CCCC(=O)Nc3cccnc3)C2=O)cc1	inconclusive: 23.1 µM [inhibitor, single point]	–
NNC(=O)c1oc2nc(-c3ccco3)cc(-c3ccco3)c2c1N	inconclusive: 16.4 µM [inhibitor, single point]	–
COc1ccc(CC(=O)Nc2ccc(-c3cn4cccc(C)c4n3)cc2)cc1OC	inconclusive: 25.9 µM [inhibitor, single point]	–
O=C(/C=C/c1ccco1)OCc1nnc(-c2ccccc2)o1	–	inactive: 14.7%
CCn1cc(C(=O)NCC2CCCO2)c(=O)c2cc(S(=O)(=O)N(C)C)ccc21 (stereo not drawn)	–	inactive: -15.6%
Cc1ccc(C)c(S(=O)(=O)N2CCN(CC(=O)Nc3ccc4c(c3)OCCO4)CC2)c1	inconclusive: 20.6 µM [inhibitor, partial curve]	–
COc1cc(NC(=O)c2ccc3c(c2)OCO3)ccc1NC(=O)c1cccs1	inconclusive: 29.1 µM [inhibitor, partial curve, poor fit]	–
CC(=O)NC1=NN(C(C)=O)C2(CCCCC2)S1	inconclusive: 18.4 µM [activator, single point]	–
COc1ccccc1Nc1nc(-c2sc(NC(=O)C(C)(C)C)nc2C)cs1	inconclusive: 18.4 µM [inhibitor, partial curve, poor fit]	–
CC(C)Cn1c2nc3ccccc3nc2c2c(=O)n(CCN3CCOCC3)cnc21	inconclusive: 20.6 µM [inhibitor, single point]	–
O=C(CCN1CCOCC1)c1ccc2c(c1)OCCO2	–	inactive: 0.816%
CC(C)(C)Sc1ccc([N+](=O)[O-])cc1C(=O)Nc1ccncc1	inconclusive: 18.3 µM [activator, partial curve]	–
COc1cc2c(cc1OC)-c1cc(NC3CC3)nc(=O)n1CC2	inconclusive: 23.1 µM [activator, partial curve]	–
Cc1c(C(=O)Oc2cc(N)n(S(C)(=O)=O)n2)cccc1[N+](=O)[O-]	–	inactive: 4.74%
CCN(CC)CCCNC(=O)c1ccc(CS(=O)(=O)c2ccccc2OC)o1	inconclusive: 0.231 µM [activator, single point]	–
COc1ccc(/C(N)=N/OC(=O)Cc2ccccc2OC)cc1	inconclusive: 29.1 µM [activator, single point]	–
COc1ccc(CNC(=O)CCCc2ccccc2)cc1	inconclusive: 20.6 µM [activator, single point]	–
O=S(=O)(c1ccc(Br)cc1)N1CCN(c2ccccc2)CC1	–	inactive: -18%
Cn1c2ccccc2c(=O)c2ccc(C#CC3(N)CCCCC3)cc21	inconclusive: 13 µM [activator, partial curve]	–
Oc1ccc(N=Nc2ccccc2C(F)(F)F)c2cccnc12	inconclusive: 6.51 µM [inhibitor, single point]	–
CSc1ncccc1C(=O)Nc1ccc(C)cn1	–	inactive: 12.8%
CCN1CCN(c2ncnc3c2sc2nc(N4CCOCC4)c4c(c23)CCC4)CC1	–	inactive: -8.33%

Structure (SMILES)	Potency	activity change, negative = inhibition
CC(=O)Nc1ccc(NC(=O)c2cc(-c3cc(C)cc(C)c3O)n[nH]2)cc1	active: 23.1 µM	–
COC(=O)c1cn(-c2nc(C)c3c(n2)CCC3)nn1	inconclusive: 20.6 µM [activator, single point]	–
CCN(CC)c1ccc(S(=O)(=O)N2CCCCC2)cc1NC(=O)C1CSC2(C)CCC(=O)N12 (stereo not drawn)	inconclusive: 16.4 µM [inhibitor, single point]	–
CC(C)(C)[C@H]1COC(=O)[C@@H](Cc2ccc(F)cc2)CC/C=C/C[C@@H](CC(=O)N[C@H](CO)Cc2ccccc2)C(=O)N1	–	inactive: -11.6%
COc1cc2c(cc1OC)C(C1C(=O)CCCC1=O)N(C(=O)CCl)CC2 (stereo not drawn)	–	inactive: 1.2%
COc1cc(C(=O)Nc2sc3c(c2C(=O)O)CCC(C)C3)cc(OC)c1OC (stereo not drawn)	active: 2.91 µM	–
O=C1CC(N2CCN(C3CC(=O)N(CCc4ccccc4)C3=O)CC2)C(=O)N1CCc1ccccc1 (stereo not drawn)	inconclusive: 13 µM [inhibitor, partial curve, poor fit]	–
COc1ccc(S(=O)(=O)N2CCOCC2)cc1NC(=O)CN(C)Cc1c(F)cccc1Cl	active: 20.6 µM	–
CCN(C[C@H]1N[C@@](C)(C(=O)OC)[C@H]2C(=O)N(Cc3ccccc3)C(=O)[C@@H]12)C(=O)Nc1ccc(F)cc1	–	inactive: -3.46%
CCCc1cc(=O)[nH]c(SCC(=O)c2cc(C)n(CCOC)c2C)n1	–	inactive: -14.2%
Cc1cccc(-c2noc(CCC(=O)Nc3ccc(C(N)=O)cc3)n2)c1	inconclusive: 9.2 µM [activator, partial curve]	–
Cc1ccc(NC(=O)c2ccc([N+](=O)[O-])o2)cc1C	inconclusive: 4.11 µM [activator, full curve, poor fit]	–
O=C(C[n+]1cccc(CNC(=O)c2ccc(OC(F)F)cc2)c1)Nc1cc(C(F)(F)F)ccc1Cl	–	inactive: 7.26%
Cc1noc(C)c1NC(=O)N(C)C[C@@H]1Oc2c(NC(=O)c3ccncc3)cccc2C(=O)N([C@H](C)CO)C[C@@H]1C	inconclusive: 13 µM [activator, partial curve, poor fit]	–
Cc1cc(C(=O)COc2cccc(-n3cnnn3)c2)c(C)n1-c1ccccc1	inconclusive: 35.5 µM [inhibitor, single point]	–
Cc1ccc(S(=O)(=O)c2nc(Nc3nccs3)sc2Cl)cc1	inconclusive: 23.1 µM [inhibitor, single point]	–
O=C(NCC(c1ccc(F)cc1)N1CCOCC1)c1ccc(C(=O)c2ccccc2)cc1 (stereo not drawn)	–	inactive: -18.6%
O=C(O)c1cccnc1SCC(=O)N1CCCCCC1	inconclusive: 1.16 µM [activator, single point]	–
COc1ccc(CCN2C(=O)CSC2=S)cc1OC	inconclusive: 25.9 µM [inhibitor, single point]	–
CCOC(=O)c1[nH]c2cc3c(cc2c1NC(=O)CN1CCC(C)CC1)OCO3	–	inactive: -19.6%
CN(C)c1ccc(C(=O)OCc2ccccc2)cc1	inconclusive: 23.1 µM [activator, partial curve]	–
COc1ccc(-c2cc3ccccc3nc2N)cc1OC	inconclusive: 14.6 µM [inhibitor, partial curve]	–

Copied from the list:
Under Potency, Cc1ccc(C)c(S(=O)(=O)N2CCN(CC(=O)Nc3ccc4c(c3)OCCO4)CC2)c1 shows inconclusive: 20.6 µM [inhibitor, partial curve]
Under Potency, CC(=O)Nc1ccc(NC(=O)c2cc(-c3cc(C)cc(C)c3O)n[nH]2)cc1 shows active: 23.1 µM
Under Potency, Cc1ccc(/C=C2\SC(=S)N(CCCC(=O)Nc3cccnc3)C2=O)cc1 shows inconclusive: 23.1 µM [inhibitor, single point]
